Measurements: patent publication US20250076286A1, “GENERATION OF NEURAL ORGANIZER ORGANOIDS AND MIDLINE ASSEMBLOIDS FROM HUMAN PLURIPOTENT STEM CELLS” (The Board of Trustees of the Leland Stanford Junior …, priority 2022, published 2025)
At least one structure is not confirmed: it was looked up by name or label, or the drawing left a doubt.

Test system: hFpO
Assay: Caudal floor plate identity of hFpO by RT-qPCR
Type: cell-based, human
Conditions: FIG. 4
[1] = series of increasing amounts of retinoic acid during hFpO induction

Question: Which results are given for CC1=C(/C=C/C(C)=C/C=C/C(C)=C/C(=O)O)C(C)(C)CCC1 [retinoic acid]?
Answer: rostro-caudal identity of hFpO (addition during hFpO induction): gives rise to caudal identity; expression of LMX1B [1]: increasing expression; expression of OTX2 [1]: decreasing expression
